# The other results are listed elsewhere or left out. Repeats are few or missing, and single values can be far off.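 Imaging used 1,536-well plates; nuclei positive for cleaved PARP by antibody were divided by total DNA-stained nuclei to yield the apoptosis fraction. Doses for screening kept most cells viable, and cell lines differ markedly in resting and induced cleaved-PARP levels.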
# Tests used:
# Test in all cases: cleaved PARP positive nuclei fraction relative to DMSO control; melanoma cells; higher = more apoptosis
# Details in all cases: library dose: low library concentration; 72 h
# MZ2-MEL = tested on: MZ2-MEL
# MeWo = tested on: MeWo
# RPMI7951 = tested on: RPMI7951
# RVH-421 = tested on: RVH-421
# SkMel28 = tested on: SkMel28
# SkMel2 = tested on: SkMel2
# SkMel30 = tested on: SkMel30
# UACC62 = tested on: UACC62
# WM115 = tested on: WM115
# WM1716 = tested on: WM1716
# WM1745 = tested on: WM1745
# WM3526 = tested on: WM3526
# WM3619 = tested on: WM3619
# WM451Lu = tested on: WM451Lu
# SkMel5 = tested on: SkMel5
# UACC257 = tested on: UACC257
Compound,cleaved PARP positive nuclei fraction (MZ2-MEL) [%],cleaved PARP positive nuclei fraction (MeWo) [%],cleaved PARP positive nuclei fraction (RPMI7951) [%],cleaved PARP positive nuclei fraction (RVH-421) [%],cleaved PARP positive nuclei fraction (SkMel28) [%],cleaved PARP positive nuclei fraction (SkMel2) [%],cleaved PARP positive nuclei fraction (SkMel30) [%],cleaved PARP positive nuclei fraction (UACC62) [%],cleaved PARP positive nuclei fraction (WM115) [%],cleaved PARP positive nuclei fraction (WM1716) [%],cleaved PARP positive nuclei fraction (WM1745) [%],cleaved PARP positive nuclei fraction (WM3526) [%],cleaved PARP positive nuclei fraction (WM3619) [%],cleaved PARP positive nuclei fraction (WM451Lu) [%],cleaved PARP positive nuclei fraction (SkMel5) [%],cleaved PARP positive nuclei fraction (UACC257) [%]
"Nc1ccn([C@@H]2O[C@H](CO)[C@@H](O)C2(F)F)c(=O)n1 [gemcitabine] + C=CCNC1=C2C[C@@H](C)C[C@H](OC)[C@H](O)[C@@H](C)/C=C(\C)[C@H](OC(N)=O)[C@@H](OC)/C=C\C=C(/C)C(=O)NC(=CC1=O)C2=O [Tanespimycin] (first compound 0.0004 µM, partner dose 0.002 µM)",133,46.4,47,60.2,39.1,81.7,59.7,176,72.7,378,137,92.6,203,76.2,–,–
"CO[C@H]1C[C@@H]2CC[C@@H](C)[C@@](O)(O2)C(=O)C(=O)N2CCCC[C@H]2C(=O)O[C@H]([C@H](C)C[C@@H]2CC[C@@H](OCCO)[C@H](OC)C2)CC(=O)[C@H](C)/C=C(\C)[C@@H](O)[C@@H](OC)C(=O)[C@H](C)C[C@H](C)/C=C/C=C/C=C/1C [everolimus] + COc1ccc2c(c1)CCC1C2CCC2(C)C(NCCCCCCN3C(=O)C=CC3=O)CCC12 [U73122] (first compound 0.02 µM, partner dose 0.4 µM)",134,121,44.6,115,506,–,397,352,41,206,94,145,191,87.1,73.5,34.9
"CO[C@H]1C[C@@H]2CC[C@@H](C)[C@@](O)(O2)C(=O)C(=O)N2CCCC[C@H]2C(=O)O[C@H]([C@H](C)C[C@@H]2CC[C@@H](OCCO)[C@H](OC)C2)CC(=O)[C@H](C)/C=C(\C)[C@@H](O)[C@@H](OC)C(=O)[C@H](C)C[C@H](C)/C=C/C=C/C=C/1C [everolimus] + N#Cc1c(O)c2c(-c3ccc(-c4ccccc4O)cc3)csc2[nH]c1=O [A769662] (first compound 0.02 µM, partner dose 2 µM)",109,74,53.3,108,526,–,41.4,338,96.1,291,102,85.7,128,55.9,76.7,356
"CNC(=O)c1cc(Oc2ccc(NC(=O)Nc3ccc(Cl)c(C(F)(F)F)c3)cc2)ccn1 [sorafenib] + Nc1ncn([C@H]2C[C@H](O)[C@@H](CO)O2)c(=O)n1 [decitabine] (first compound 0.4 µM, partner dose 0.1 µM)",166,113,184,37.9,198,216,123,233,114,60.3,106,114,109,56,–,–
"CC(C)C[C@H](NC(=O)[C@H](Cc1ccccc1)NC(=O)c1cnccn1)B(O)O [Bortezomib] + Cn1c(Nc2ccc(C(F)(F)F)cc2)nc2cc(Oc3ccnc(-c4ncc(C(F)(F)F)[nH]4)c3)ccc21 [CHIR265] (first compound 0.001 µM, partner dose 0.08 µM)",326,149,71.6,366,116,137,214,354,200,624,282,83.8,1280,115,–,–
"CN1CCN(c2ccc3nc(-c4c(N)c5c(F)cccc5[nH]c4=O)[nH]c3c2)CC1 [Dovitinib] + CS(=O)(=O)CCNCc1ccc(-c2ccc3ncnc(Nc4ccc(OCc5cccc(F)c5)c(Cl)c4)c3c2)o1 [lapatinib] (first compound 0.1 µM, partner dose 0.8 µM)",74.9,126,96.3,211,104,58.5,103,168,121,93.6,108,39.6,94.3,87.2,–,–
"Cn1c(=O)n(-c2ccc(C(C)(C)C#N)cc2)c2c3cc(-c4cnc5ccccc5c4)ccc3ncc21 + C=CCNC1=C2C[C@@H](C)C[C@H](OC)[C@H](O)[C@@H](C)/C=C(\C)[C@H](OC(N)=O)[C@@H](OC)/C=C\C=C(/C)C(=O)NC(=CC1=O)C2=O [Tanespimycin] (first compound 0.004 µM, partner dose 0.002 µM)",115,30.6,105,324,333,59.9,92.4,68.4,143,73.8,105,94.3,114,38.8,–,–
"CS(=O)(=O)CCNCc1ccc(-c2ccc3ncnc(Nc4ccc(OCc5cccc(F)c5)c(Cl)c4)c3c2)o1 [lapatinib] + Cn1c(Nc2ccc(C(F)(F)F)cc2)nc2cc(Oc3ccnc(-c4ncc(C(F)(F)F)[nH]4)c3)ccc21 [CHIR265] (first compound 0.8 µM, partner dose 0.08 µM)",101,140,98.5,135,61.8,185,251,216,420,168,167,428,126,280,–,–
"CC(C)C[C@H](NC(=O)[C@H](Cc1ccccc1)NC(=O)c1cnccn1)B(O)O [Bortezomib] + C[C@@H](Oc1cc(-c2cnn(C3CCNCC3)c2)cnc1N)c1c(Cl)ccc(F)c1Cl [Crizotinib] (first compound 0.001 µM, partner dose 0.2 µM)",128,242,163,110,47.8,99.8,172,49.9,68.7,285,278,264,594,44.3,–,–
"Cc1cc(Nc2cc(N3CCN(C)CC3)nc(/C=C/c3ccccc3)n2)n[nH]1 + Nc1ccn([C@@H]2O[C@H](CO)[C@@H](O)C2(F)F)c(=O)n1 [gemcitabine] (first compound 0.04 µM, partner dose 0.0004 µM)",61.9,79.8,94.6,77.5,78.3,99.3,147,176,87,122,107,27,124,40.4,–,–
"CO[C@H]1C[C@@H]2CC[C@@H](C)[C@@](O)(O2)C(=O)C(=O)N2CCCC[C@H]2C(=O)O[C@H]([C@H](C)C[C@@H]2CC[C@@H](OCCO)[C@H](OC)C2)CC(=O)[C@H](C)/C=C(\C)[C@@H](O)[C@@H](OC)C(=O)[C@H](C)C[C@H](C)/C=C/C=C/C=C/1C [everolimus] + O=c1cc(-c2cccc3c2Sc2ccccc2S3)oc(N2CCOCC2)c1 [KU55933] (first compound 0.02 µM, partner dose 1 µM)",339,57.4,109,146,280,–,140,282,126,69.3,98.2,48.9,109,414,110,135
"Cn1c(=O)n(-c2ccc(C(C)(C)C#N)cc2)c2c3cc(-c4cnc5ccccc5c4)ccc3ncc21 + O=C(O)c1ccc2c(c1)nc(Nc1cccc(Cl)c1)c1ccncc12 [CX4945] (first compound 0.004 µM, partner dose 0.4 µM)",130,67,155,116,303,57,40.8,73.3,139,37.3,96.9,65.5,104,358,–,–
"CO[C@H]1C[C@@H]2CC[C@@H](C)[C@@](O)(O2)C(=O)C(=O)N2CCCC[C@H]2C(=O)O[C@H]([C@H](C)C[C@@H]2CC[C@@H](OCCO)[C@H](OC)C2)CC(=O)[C@H](C)/C=C(\C)[C@@H](O)[C@@H](OC)C(=O)[C@H](C)C[C@H](C)/C=C/C=C/C=C/1C [everolimus] + COc1ccc(-c2ccc3c(N4CCOCC4)nc(N4C[C@@H](C)O[C@@H](C)C4)nc3n2)cc1CO [KU0063794] (first compound 0.02 µM, partner dose 0.02 µM)",223,40.7,155,55.7,515,–,171,319,167,72.8,92,133,139,77.4,76.9,320
"Cn1c(=O)n(-c2ccc(C(C)(C)C#N)cc2)c2c3cc(-c4cnc5ccccc5c4)ccc3ncc21 + OCc1c[nH]c2ccccc12 [Indole-3-carbinol] (first compound 0.004 µM, partner dose 0.8 µM)",126,34.9,106,93.9,43.8,163,124,290,153,106,90.1,46.3,114,87.2,–,–
"Nc1nc(F)nc2c1ncn2[C@@H]1O[C@H](CO)[C@@H](O)[C@@H]1O [fludarabine] + OCc1c[nH]c2ccccc12 [Indole-3-carbinol] (first compound 0.2 µM, partner dose 0.8 µM)",93.5,590,85.3,138,51.9,1550,1870,77.7,121,77.2,94.2,486,119,122,–,–
"C=C(c1ccc(C(=O)O)cc1)c1cc2c(cc1C)C(C)(C)CCC2(C)C [Bexarotene] + C#Cc1cccc(Nc2ncnc3cc(OCCOC)c(OCCOC)cc23)c1 [erlotinib] (first compound 2 µM, partner dose 0.8 µM)",127,111,128,80.7,136,134,172,125,69.7,79.1,112,307,108,56,–,–
"CS(=O)(=O)CCNCc1ccc(-c2ccc3ncnc(Nc4ccc(OCc5cccc(F)c5)c(Cl)c4)c3c2)o1 [lapatinib] + O=C(O)c1ccc2c(c1)nc(Nc1cccc(Cl)c1)c1ccncc12 [CX4945] (first compound 0.8 µM, partner dose 0.4 µM)",109,147,152,93.9,73.4,74.6,160,49.6,133,137,84,23.2,83.4,129,–,–

# Shown tab-delimited: entries from further up.
Compound	cleaved PARP positive nuclei fraction (MZ2-MEL) [%]	cleaved PARP positive nuclei fraction (MeWo) [%]	cleaved PARP positive nuclei fraction (RPMI7951) [%]	cleaved PARP positive nuclei fraction (RVH-421) [%]	cleaved PARP positive nuclei fraction (SkMel28) [%]	cleaved PARP positive nuclei fraction (SkMel2) [%]	cleaved PARP positive nuclei fraction (SkMel30) [%]	cleaved PARP positive nuclei fraction (UACC62) [%]	cleaved PARP positive nuclei fraction (WM115) [%]	cleaved PARP positive nuclei fraction (WM1716) [%]	cleaved PARP positive nuclei fraction (WM1745) [%]	cleaved PARP positive nuclei fraction (WM3526) [%]	cleaved PARP positive nuclei fraction (WM3619) [%]	cleaved PARP positive nuclei fraction (WM451Lu) [%]	cleaved PARP positive nuclei fraction (SkMel5) [%]	cleaved PARP positive nuclei fraction (UACC257) [%]
CO[C@H]1C[C@@H]2CC[C@@H](C)[C@@](O)(O2)C(=O)C(=O)N2CCCC[C@H]2C(=O)O[C@H]([C@H](C)C[C@@H]2CC[C@@H](OCCO)[C@H](OC)C2)CC(=O)[C@H](C)/C=C(\C)[C@@H](O)[C@@H](OC)C(=O)[C@H](C)C[C@H](C)/C=C/C=C/C=C/1C [everolimus] + COc1ccc(-c2ccc3c(N4CCOCC4)nc(N4C[C@@H](C)O[C@@H](C)C4)nc3n2)cc1CO [KU0063794] (first compound 0.02 µM, partner dose 0.02 µM)	223	40.7	155	55.7	515	–	171	319	167	72.8	92	133	139	77.4	76.9	320
Cn1c(=O)n(-c2ccc(C(C)(C)C#N)cc2)c2c3cc(-c4cnc5ccccc5c4)ccc3ncc21 + OCc1c[nH]c2ccccc12 [Indole-3-carbinol] (first compound 0.004 µM, partner dose 0.8 µM)	126	34.9	106	93.9	43.8	163	124	290	153	106	90.1	46.3	114	87.2	–	–
